In PubChem BioAssay AID220 (DTP/NCI, 2004) one finds T/C data, which are given here for one compound.

In the assay the test system is CD8F1 mice, subcutaneous mammary adenocarcinoma, T/C%. Briefly: NCI In Vivo Anticancer Drug Screen. Data for tumor model Mammary Adenocarcinoma CD8F1 (subcutaneous) in CD8F1. As to conditions: vehicle: saline, higher T/C = larger tumour. On the procedure:
The antitumor activity of compounds was measured in mice bearing transplantable tumors. Survival or tumor size were measured and the results are expressed as the measurement made in the treated group (T) divided by the measurement made in the vehicle treated control group (C). The tumor model used in this assay is Mammary Adenocarcinoma CD8F1 (subcutaneous) in CD8F1

The list does not hold the whole screen: its compounds were picked by chemical class. Not every dose and run of a compound is shown. T/C gives the treated animals as a percentage of the vehicle group. Schedule codes are those of the source, taken here to give the interval after Q, in days (D) or hours (H), and the number of doses after X. Some T/C values are marked as having no survivor count here; that says nothing about deaths at the dose. Some entries hold several experiments; the results are listed from low to high.

Regarding `CN(CCCl)CCCl`, the T/C runs as follows: (T/C endpoint: mean tumor weight (est.), dose: 0.25 mg/kg/injection, schedule: Q07DX002 (ip), evaluation day not shown) 79 % of control [survivor count not shown]; (T/C endpoint: mean tumor weight (est.), dose: 0.5 mg/kg/injection, schedule: Q07DX002 (ip), evaluation day not shown) 78 % of control [survivor count not shown]; (T/C endpoint: mean tumor weight (est.), dose: 1.0 mg/kg/injection, schedule: Q07DX002 (ip), evaluation day not shown) 67 % of control [survivor count not shown]; (T/C endpoint: mean tumor weight, dose: 0.13 mg/kg/injection, schedule: Q01DX009 (ip), evaluation day not shown) 98 % of control [survivor count not shown]; (T/C endpoint: mean tumor weight, dose: 0.13 mg/kg/injection, schedule: Q07DX006 (ip), evaluation day not shown) 90 % of control [survivor count not shown]; (T/C endpoint: mean tumor weight, dose: 0.25 mg/kg/injection, schedule: Q01DX009 (ip), evaluation day not shown) 36 % of control [survivor count not shown]. For the same compound, the T/C by setting is: (T/C endpoint: mean tumor weight, dose: 0.25 mg/kg/injection, schedule: Q07DX006 (ip), evaluation day not shown) 417 % of control [survivor count not shown]; (T/C endpoint: mean tumor weight, dose: 0.5 mg/kg/injection, schedule: Q01DX009 (ip), evaluation day not shown) 7 % of control [survivor count not shown]; (T/C endpoint: mean tumor weight, dose: 0.5 mg/kg/injection, schedule: Q07DX006 (ip), evaluation day not shown) 34 % of control [survivor count not shown]; (T/C endpoint: mean tumor weight, dose: 1.0 mg/kg/injection, schedule: Q07DX006 (ip), evaluation day not shown) 19 % of control [survivor count not shown]; (T/C endpoint: mean tumor weight, dose: 5.0 mg/kg/injection, schedule: Q07DX006 (ip), evaluation day not shown) 85 % of control [survivor count not shown]; (T/C endpoint: median tumor weight (est.), dose: 0.06 mg/kg/injection, schedule: Q07DX005 (ip), evaluated on day 30) 209 % of control. Further, the T/C is 49 [survivor count not shown] and 70 % of control [survivor count not shown] (T/C endpoint: median tumor weight (est.), dose: 0.06 mg/kg/injection, schedule: Q07DX005 (ip), evaluation day not shown); 39 % of control (T/C endpoint: median tumor weight (est.), dose: 0.12 mg/kg/injection, schedule: Q07DX005 (ip), evaluated on day 30); 61 % of control [survivor count not shown] (T/C endpoint: median tumor weight (est.), dose: 0.12 mg/kg/injection, schedule: Q07DX005 (ip), evaluation day not shown); 92 % of control [survivor count not shown] (T/C endpoint: median tumor weight (est.), dose: 0.13 mg/kg/injection, schedule: Q07DX005 (ip), evaluation day not shown); 48 % of control (T/C endpoint: median tumor weight (est.), dose: 0.25 mg/kg/injection, schedule: Q07DX005 (ip), evaluated on day 30); 34 [survivor count not shown] and 49 % of control [survivor count not shown] (T/C endpoint: median tumor weight (est.), dose: 0.25 mg/kg/injection, schedule: Q07DX005 (ip), evaluation day not shown). Also, the T/C (T/C endpoint: median tumor weight (est.), dose: 0.5 mg/kg/injection, schedule: Q07DX005 (ip), evaluated on day 30) was 75 % of control; the T/C (T/C endpoint: median tumor weight (est.), dose: 0.5 mg/kg/injection, schedule: Q07DX005 (ip), evaluation day not shown) is 5 [survivor count not shown] and 17 % of control [survivor count not shown]; the T/C (T/C endpoint: median tumor weight (est.), dose: 1.0 mg/kg/injection, schedule: Q07DX005 (ip), evaluated on day 30) is 28 % of control.
